Results are given in words; binding and its absence hold for the method and conditions named. Binding seen in cells or lysates may run through a third protein. Some results given as binding are weak or reduced against the parent protein; the word gives no strength.
Target: YY1 (mouse (endogenous in AML12)) (UniProt Q00899)
Assay: co-IP; total lysate of oe-NEDD4L AML12 cells; Protein G agarose bound with target protein antibody (anti-YY1 or anti-NEDD4L) or control IgG, overnight at 4°C; eluted in SDS-PAGE loading buffer, western blot

Sequences of proteins named here, by UniProt entry; tags and fusion partners are left off.
UniProt Q00899: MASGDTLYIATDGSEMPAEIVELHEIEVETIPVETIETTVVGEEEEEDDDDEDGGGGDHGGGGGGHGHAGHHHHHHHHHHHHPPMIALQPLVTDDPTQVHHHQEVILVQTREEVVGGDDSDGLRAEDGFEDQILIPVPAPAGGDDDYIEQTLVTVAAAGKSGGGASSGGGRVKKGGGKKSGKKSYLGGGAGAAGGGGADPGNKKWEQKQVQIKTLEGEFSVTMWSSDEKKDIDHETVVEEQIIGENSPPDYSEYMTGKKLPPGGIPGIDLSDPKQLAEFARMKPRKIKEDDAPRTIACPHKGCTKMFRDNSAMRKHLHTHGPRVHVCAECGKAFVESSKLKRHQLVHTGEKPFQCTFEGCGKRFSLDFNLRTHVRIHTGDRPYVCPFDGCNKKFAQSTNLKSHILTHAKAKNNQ
UniProt Q8CFI0: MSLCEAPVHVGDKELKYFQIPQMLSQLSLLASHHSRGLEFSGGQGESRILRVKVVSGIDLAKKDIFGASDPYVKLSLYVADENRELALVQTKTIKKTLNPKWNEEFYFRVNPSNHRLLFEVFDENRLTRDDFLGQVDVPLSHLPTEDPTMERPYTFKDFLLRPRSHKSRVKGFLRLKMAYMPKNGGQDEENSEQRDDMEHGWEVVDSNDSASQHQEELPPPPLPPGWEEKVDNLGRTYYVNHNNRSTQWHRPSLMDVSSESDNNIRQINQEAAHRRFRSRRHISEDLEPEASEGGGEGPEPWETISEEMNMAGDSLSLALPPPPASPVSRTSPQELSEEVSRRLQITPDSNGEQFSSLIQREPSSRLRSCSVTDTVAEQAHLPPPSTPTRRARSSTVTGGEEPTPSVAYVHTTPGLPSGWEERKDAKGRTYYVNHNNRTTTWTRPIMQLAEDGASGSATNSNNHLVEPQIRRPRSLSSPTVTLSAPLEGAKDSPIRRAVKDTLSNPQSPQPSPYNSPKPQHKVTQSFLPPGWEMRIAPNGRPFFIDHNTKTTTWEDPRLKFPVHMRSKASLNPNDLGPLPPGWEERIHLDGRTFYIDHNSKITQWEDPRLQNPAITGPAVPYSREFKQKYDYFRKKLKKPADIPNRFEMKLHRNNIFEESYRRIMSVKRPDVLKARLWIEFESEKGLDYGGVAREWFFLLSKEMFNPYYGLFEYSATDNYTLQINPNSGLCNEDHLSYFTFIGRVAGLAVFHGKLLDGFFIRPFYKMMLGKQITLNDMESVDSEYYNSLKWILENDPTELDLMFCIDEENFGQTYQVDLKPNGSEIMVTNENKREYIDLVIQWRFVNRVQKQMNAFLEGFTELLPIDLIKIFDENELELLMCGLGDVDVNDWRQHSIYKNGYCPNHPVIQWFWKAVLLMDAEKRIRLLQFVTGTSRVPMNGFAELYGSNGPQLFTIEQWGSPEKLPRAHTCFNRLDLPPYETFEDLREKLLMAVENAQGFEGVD

E3 ubiquitin ligase NEDD4L (from UniProt Q8CFI0 1-1004) (enzyme)
binding: binds
